PubChem BioAssay AID2685 (National Center for Advancing Translational Sciences (NCATS), 2010)
Several values for one entry are separate records, joined by “and”; a condition that tells them apart may be missing. Equal values may be shown once. The campaign covered roughly 320,000 compounds. About 2,100 (0.66%) were called active. The inconclusive results got no clear call from the source; some entries with a clear call stand among them for comparison. Calls come from the whole dose curve; as a rule, active = well fitted inhibition curve with a large enough effect in the signal ratio, with a control signal flat (not every such curve was filed as active); inconclusive = small, poorly fitted or top-dose-only effect, or effect the other way, or a change in a side signal; inactive = flat fitted curve, though single readings scatter; the % refers to the signal ratio. Where the call is inconclusive, the potency comes from a doubtful curve fit.

Assay: qHTS Assay for Lipid Storage Modulators in Drosophila S3 Cells
Settings: BODIPY lipid droplet fluorescence, 18-24 h, cells fed with added oleic acid; lipid storage change, negative = inhibition: at 46.1 µM (top of the series) unless noted
How it was run: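 Laser-scanning cytometry quantifies lipid droplet accumulation (500–530 nm total intensity; droplet/cell object ratio) in oleic acid-fed (400 uM added) Drosophila S3 cells treated with a concentration series. 20 uM Triacsin C defined 100% inhibition.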
% is set by controls: 0 for no effect and ±100 for the full control effect; potency is the fitted concentration of half-maximal effect.

Row | SMILES | Potency | lipid storage change, negative = inhibition
1 | CCCCNc1nc(-c2ccccc2)nc(-n2ccnc2)n1 | inconclusive: 2.31 µM [cytotoxic, partial curve] | 
2 | COc1cc(/C=C2\C(=O)ON=C2c2ccccc2)cc(Cl)c1O | inconclusive: 29.1 µM [falling, single point] | 
3 | O=C(COC(=O)C(Cc1ccccc1)NC(=O)c1ccccc1)c1ccccc1 (stereo unspecified) |  | inconclusive: -13.2%
4 | CCc1nccn1S(=O)(=O)c1ccc(OC)c(OC)c1 |  | inconclusive: -3.75%
5 | COc1ccc(NC(=O)CN2CCC(NC(=O)c3ccco3)CC2)c([N+](=O)[O-])c1 | inconclusive: 0.651 µM [falling, full curve] | 
6 | CN(C(=O)CSc1nc2ccccc2s1)c1c(N)n(Cc2ccccc2)c(=O)[nH]c1=O |  | inconclusive: -13.2%
7 | CC1(C)C(=O)Nc2ccccc2N1C(=O)COC(=O)COc1ccc(C#N)cc1 |  | inconclusive: 0.503%
8 | COc1ccc(CNC(=O)CSc2nc(SC)ns2)cc1 | inconclusive: 4.11 µM [activator, full curve, poor fit] | 
9 | COC(=O)c1[nH]c2c(c1C)C(=O)CCC2 |  | inconclusive: 23.8%
10 | CC(Oc1ccc(Cl)cc1)C(=O)NCC1CCCO1 (stereo unspecified) |  | inconclusive: -26.6%
11 | CCn1c(C)nc2cc(S(=O)(=O)C(F)(F)F)ccc21 |  | inconclusive: -64.3%
12 | Cc1ccc(N=Nc2c(C)[nH]n(-c3ccccc3)c2=O)cc1Br | inconclusive: 2.91 µM [falling, full curve] | 
13 | CCCC(=O)Oc1ccc(-c2nccc(C(OC)OC)n2)cc1 |  | inconclusive: -20.4%
14 | COc1ccc(NC(=O)c2cccs2)cc1OC | inconclusive: 5.8 µM [activator, partial curve] | 
15 | COc1cc2c(OC)cccc2cc1C(=O)O |  | inconclusive: -41.3%
16 | COc1ccc(-c2cc(C(F)(F)F)n3nc(C(=O)N4CCN(C(=O)c5ccco5)CC4)cc3n2)cc1 |  | inconclusive: -68.8%
17 | CCOc1ccccc1NC(=O)N1CCCC1C(=O)Nc1nnc(CC)s1 (stereo unspecified) | inconclusive: 0.116 µM [falling, full curve, poor fit] | 
18 | CCOc1ccc(S(=O)(=O)N2CCOCC2)cc1NC(=O)CN1C(=O)NC(C)(c2ccccc2)C1=O (stereo unspecified) |  | inconclusive: -0.286%
19 | CCOc1ccc(NC(=O)NCCCCc2ccccc2)cc1 |  | inconclusive: 18.3%
20 | CC(=O)c1ccc(NC(=O)C2CCN(S(=O)(=O)c3cccc4nonc34)CC2)cc1 |  | inconclusive: 108%
21 | Cc1cc(Br)ccc1NC(=O)CN(C)C(=O)C1CSC2(C)CCC(=O)N12 (stereo unspecified) |  | inconclusive: -11.1%
22 | O=C(Nc1cc(C(F)(F)F)ccc1N1CCOCC1)c1ccc(Cl)nc1 | inconclusive: 9.2 µM [activator, partial curve] | 
23 | O=C(NC(=S)Nc1ccc2c(c1)OCCO2)c1cccc(Br)c1 |  | inconclusive: 29.2%
24 | O=[N+]([O-])c1cc(Br)c(O)c(C=Nc2ccc(N3CCOCC3)cc2)c1 |  | inconclusive: 16.6%
25 | O=C1CC(N2C(=O)/C(=C/C=C/c3ccccc3)SC2=S)C(=O)N1c1ccccc1 (stereo unspecified) |  | inconclusive: 21.5%
26 | Cc1cc2occ(CC(=O)NC3(C)CCS(=O)(=O)C3)c2cc1C (stereo unspecified) |  | inconclusive: 12.6%

By substructure: those above with an aryl thioether with sulfur outside any ring.
Row | SMILES | Potency | lipid storage change, negative = inhibition
6 | CN(C(=O)CSc1nc2ccccc2s1)c1c(N)n(Cc2ccccc2)c(=O)[nH]c1=O |  | inconclusive: -13.2%
8 | COc1ccc(CNC(=O)CSc2nc(SC)ns2)cc1 | inconclusive: 4.11 µM [activator, full curve, poor fit] | 

Further results.

Row | SMILES | Potency | lipid storage change, negative = inhibition
27 | COc1ccc(S(=O)(=O)N2CCCC2C(=O)NCc2ccccc2Cl)cc1 (stereo unspecified) |  | inconclusive: 8.82%
28 | O=S(=O)(c1cccc(C(F)(F)F)c1)N(CCCN1CCOCC1)Cc1cccs1 |  | inconclusive: -3.58%
29 | Cc1nc(NCCc2cnc[nH]2)c2oc3ccccc3c2n1 | inconclusive: 0.651 µM [activator, single point] | 
30 | Cc1ccc(C(=O)OCC(=O)N2CC(C)OC(C)C2)cc1 (stereo unspecified) | inconclusive: 9.2 µM [activator, partial curve] | 
31 | CC1(C(=O)OCC(=O)Nc2ccccc2)CC1(Cl)Cl (stereo unspecified) |  | inconclusive: -17.4%
32 | CCCC(C(=O)Nc1cccc(S(=O)(=O)N2CCCC2)c1)c1ccccc1 (stereo unspecified) |  | inconclusive: 6.01%
33 | CC(OC(=O)c1cccnc1SCc1cc(=O)n2ccccc2n1)c1ccccn1 (stereo unspecified) |  | inconclusive: 86.9%
34 | COc1cc(OC)c(S(=O)(=O)Nc2ccccc2N2CCCCC2)cc1NC(C)=O |  | inconclusive: -20.1%
35 | O=C(NCc1ccccn1)[C@H]1C[C@@H]1[C@H](NP(=O)(c1ccccc1)c1ccccc1)c1ccccc1 |  | inconclusive: 18.5%
36 | CCn1c(SCC(=O)N(C)C)nc2cc(S(=O)(=O)N3CCOCC3)ccc21 |  | inconclusive
37 | Cc1ccc(S(=O)(=O)N2CCOCC2)cc1C(=O)OCc1nnc(-c2ccccc2)o1 | inconclusive: 1.84 µM [activator, partial curve, poor fit] | 
38 | Cc1cccc(NC(=O)CN2CCN(C(=O)c3cccc(-n4cnnn4)c3)CC2)c1C | inconclusive: 29.1 µM [activator, single point] | 
39 | CCOC(=O)c1[nH]c2ccc(OC)cc2c1NC(=O)CCN1CCc2ccccc2C1 | inconclusive: 1.3 µM [activator, full curve] | 
40 | Cc1nn(Cc2ccccc2)c(Cl)c1C(=O)NCc1ccc(C)n1C | inconclusive: 6.51 µM [activator, single point] | 
41 | N#Cc1c[nH]n2c(=O)cc(Cc3ccccc3)nc12 |  | inconclusive: -17.3%
42 | COc1ccccc1NC(=O)Cc1nnc(SCC(=O)c2ccc(F)cc2)n1C |  | inconclusive: 206%
43 | Cn1cnnc1Sc1cc(N2CCN(S(=O)(=O)c3ccccc3)CC2)ccc1[N+](=O)[O-] | inconclusive: 0.411 µM [activator, full curve, poor fit] | 
44 | CC1(C)CC(=O)c2cc(C(=O)N3CCCC(C)(C)C3)c(=O)n(-c3ccccc3)c2C1 |  | inconclusive: 0.209%
45 | CCN(CC(=O)NCc1ccc(Cl)cc1)C(=O)CCC(=O)c1ccc(F)cc1 |  | inconclusive: 17.3%
46 | O=C(Nc1ccccc1Cl)c1cc(S(=O)(=O)N2CCCCC2)ccc1N1CCOCC1 |  | inconclusive: -28.1%
47 | CC1(c2nnc(-c3ccccc3)o2)CC(c2cccc(Cl)c2)=NO1 (stereo unspecified) |  | inconclusive: 15%
48 | Clc1ccc(-n2ncc3c(NCc4cccnc4)ncnc32)cc1Cl | active: 13 µM | 
49 | O=C(O)C1CCCCC1C(=O)NC1CCCCC1 (stereo unspecified) | inconclusive: 0.326 µM [falling, full curve, poor fit] | 
50 | CCOC(=O)C1CCN(C(=O)c2c(C)oc3c2C(=O)c2ccccc2C3=O)CC1 | inconclusive: 23.1 µM [falling, single point] | 
51 | CCN(c1ccc(OC)cc1)S(=O)(=O)c1ccc(-c2cc(C)no2)s1 | inconclusive: 18.4 µM [activator, single point] | 
52 | O=C(NC1C2CC3CC(C2)CC1C3)C1CCCCC1 (stereo unspecified) |  | inconclusive: -48.7%

Row | SMILES | Potency | lipid storage change, negative = inhibition
53 | Cc1ccc(-c2ccc(OC(=O)c3ccc(=O)[nH]c3)c(C)c2)cc1 |  | inconclusive: 52.6%
54 | COc1ccc(C(CC(=O)NCCN2CCOCC2)NS(=O)(=O)c2ccc(C)cc2)cc1 (stereo unspecified) |  | inconclusive: 33.4%
55 | CCc1ccc(-c2c(C)sc(NC(=O)C3CCC3)c2C#N)cc1 |  | inconclusive: -5.83%
56 | O=C(c1ccccc1)N1CCSc2sccc2C1=O |  | inconclusive: 8.47%
57 | CCCc1nnc(SCC(=O)Nc2ccc(OC)cc2)o1 |  | inconclusive: 17.3%
58 | C/C(CC(=O)Nc1ccc(N(C)C)cc1)=N\NC(=O)c1cnccn1 |  | inconclusive: 26.8%
59 | Cc1cc2oc(=O)cc(Cn3nnc(-c4ccc(Cl)cc4)n3)c2cc1C(C)C |  | inconclusive: 18.6%
60 | O=C(O)c1cnc(-c2ccccc2)nc1Sc1ccc(Cl)cc1Cl |  | inconclusive: 35%
61 | c1ccc(-c2ccc(-c3ccccn3)nn2)nc1 |  | inconclusive: 10.7%
62 | Cc1cc(C(=O)N2CCN(S(=O)(=O)c3ccc(F)c(Cl)c3)CC2)c(C)o1 | inconclusive: 29.1 µM [falling, single point] | 
63 | Cc1nnsc1C(=O)N1CCCC(N2CCN(c3ccc(F)cc3)CC2)C1 (stereo unspecified) |  | inconclusive: 27%
64 | CCc1cc(=O)oc2cc(C)cc(OC(C)C(=O)NCc3ccccn3)c12 (stereo unspecified) |  | inconclusive: 7.81%
65 | Cc1ccc2cccc(OCC(=O)Nc3ccc4c(c3)OCO4)c2n1 |  | inconclusive: 4.83%
66 | COc1ccccc1CCC(=O)OCC(=O)Nc1ccc(C)c(S(=O)(=O)N2CCCCC2)c1 |  | inconclusive: 32.8%
67 | COc1cccc(NC(=S)N2CCN(c3ccc([N+](=O)[O-])cc3)CC2)c1 |  | inconclusive: -18%
68 | CCOC(=O)N1CCN(c2c(Nc3cc(C)[nH]n3)c(=O)c2=O)CC1 | inconclusive: 0.146 µM [falling, full curve, poor fit] | 
69 | COc1ccc(CSC2=NCCN2)cc1Cl |  | inconclusive: -40.6%
70 | COc1ccccc1NC(=O)Nc1ccnn1C1CCCCC1 |  | inconclusive: 28.7%
71 | CCOC(=O)C1=C(C)Nc2ncnn2C1c1c[nH]c2ccccc12 (stereo unspecified) | inconclusive: 0.259 µM [activator, full curve] | 
72 | CCNC(=O)CC(=O)Nc1ccccc1C(=O)O | inconclusive: 0.231 µM [falling, full curve, poor fit] | 
73 | COc1cc(S(=O)(=O)NC2CCCCC2C)ccc1Cl (stereo unspecified) |  | inconclusive: 49.6%
74 | C=C1C[C@]23C[C@@]1(O)CC[C@H]2[C@@]12C=C[C@H](O)[C@@](C)(C(=O)O1)[C@H]2[C@@H]3C(=O)O |  | inconclusive: 4.23% and inconclusive: -13.9%
75 | Cc1ccc2nc(SCC(=O)Nc3ccc(Cl)cc3)nc(=O)n2c1 | inconclusive: 20.6 µM [falling, single point] | 
76 | COc1cccc(OC)c1C(=O)Nc1ccc(N2CCCCC2)cc1 |  | inconclusive: 3.79%

Excerpt, compounds 69 to 70
Row | SMILES | Potency | lipid storage change, negative = inhibition
69 | COc1ccc(CSC2=NCCN2)cc1Cl |  | inconclusive: -40.6%
70 | COc1ccccc1NC(=O)Nc1ccnn1C1CCCCC1 |  | inconclusive: 28.7%
